# Assay results as given in the supplement of paper PMC10032668.
# The chains behind the UniProt entries cited, without tags or fusion partners.
# EIF3H, O15372, UniProt O15372, whole entry: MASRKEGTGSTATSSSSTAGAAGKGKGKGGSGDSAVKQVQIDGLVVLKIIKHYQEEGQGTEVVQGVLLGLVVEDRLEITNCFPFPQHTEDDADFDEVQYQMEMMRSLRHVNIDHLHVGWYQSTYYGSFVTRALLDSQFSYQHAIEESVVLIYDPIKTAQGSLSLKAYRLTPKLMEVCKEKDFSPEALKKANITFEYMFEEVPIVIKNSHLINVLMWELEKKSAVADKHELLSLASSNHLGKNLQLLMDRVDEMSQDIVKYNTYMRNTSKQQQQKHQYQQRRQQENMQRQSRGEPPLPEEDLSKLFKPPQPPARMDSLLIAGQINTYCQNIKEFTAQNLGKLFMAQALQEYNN
# CDC20, Q12834, UniProt Q12834, whole entry: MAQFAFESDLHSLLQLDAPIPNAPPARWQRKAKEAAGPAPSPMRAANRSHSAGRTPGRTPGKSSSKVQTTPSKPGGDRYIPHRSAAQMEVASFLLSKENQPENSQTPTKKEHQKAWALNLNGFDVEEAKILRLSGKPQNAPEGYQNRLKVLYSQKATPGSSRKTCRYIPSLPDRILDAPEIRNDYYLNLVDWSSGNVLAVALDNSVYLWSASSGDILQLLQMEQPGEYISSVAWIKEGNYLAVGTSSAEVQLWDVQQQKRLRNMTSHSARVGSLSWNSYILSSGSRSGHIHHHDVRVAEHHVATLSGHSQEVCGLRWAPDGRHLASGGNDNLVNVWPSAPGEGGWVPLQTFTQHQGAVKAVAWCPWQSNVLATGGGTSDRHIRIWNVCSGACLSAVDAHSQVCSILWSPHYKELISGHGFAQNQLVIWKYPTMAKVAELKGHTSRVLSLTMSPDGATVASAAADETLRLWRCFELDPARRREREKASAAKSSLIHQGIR
# PCBP2, Q15366, UniProt Q15366, whole entry: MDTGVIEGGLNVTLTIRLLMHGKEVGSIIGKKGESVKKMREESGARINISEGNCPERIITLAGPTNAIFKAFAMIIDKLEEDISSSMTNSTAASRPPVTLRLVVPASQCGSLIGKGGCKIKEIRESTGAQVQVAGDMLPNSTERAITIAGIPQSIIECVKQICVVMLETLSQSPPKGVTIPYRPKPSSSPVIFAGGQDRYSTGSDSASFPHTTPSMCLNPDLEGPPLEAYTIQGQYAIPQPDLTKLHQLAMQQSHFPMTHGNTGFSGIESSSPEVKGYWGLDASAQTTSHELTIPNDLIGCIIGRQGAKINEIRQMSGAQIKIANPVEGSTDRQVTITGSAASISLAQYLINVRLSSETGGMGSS
# HUWE1, Q7Z6Z7, UniProt Q7Z6Z7, whole entry: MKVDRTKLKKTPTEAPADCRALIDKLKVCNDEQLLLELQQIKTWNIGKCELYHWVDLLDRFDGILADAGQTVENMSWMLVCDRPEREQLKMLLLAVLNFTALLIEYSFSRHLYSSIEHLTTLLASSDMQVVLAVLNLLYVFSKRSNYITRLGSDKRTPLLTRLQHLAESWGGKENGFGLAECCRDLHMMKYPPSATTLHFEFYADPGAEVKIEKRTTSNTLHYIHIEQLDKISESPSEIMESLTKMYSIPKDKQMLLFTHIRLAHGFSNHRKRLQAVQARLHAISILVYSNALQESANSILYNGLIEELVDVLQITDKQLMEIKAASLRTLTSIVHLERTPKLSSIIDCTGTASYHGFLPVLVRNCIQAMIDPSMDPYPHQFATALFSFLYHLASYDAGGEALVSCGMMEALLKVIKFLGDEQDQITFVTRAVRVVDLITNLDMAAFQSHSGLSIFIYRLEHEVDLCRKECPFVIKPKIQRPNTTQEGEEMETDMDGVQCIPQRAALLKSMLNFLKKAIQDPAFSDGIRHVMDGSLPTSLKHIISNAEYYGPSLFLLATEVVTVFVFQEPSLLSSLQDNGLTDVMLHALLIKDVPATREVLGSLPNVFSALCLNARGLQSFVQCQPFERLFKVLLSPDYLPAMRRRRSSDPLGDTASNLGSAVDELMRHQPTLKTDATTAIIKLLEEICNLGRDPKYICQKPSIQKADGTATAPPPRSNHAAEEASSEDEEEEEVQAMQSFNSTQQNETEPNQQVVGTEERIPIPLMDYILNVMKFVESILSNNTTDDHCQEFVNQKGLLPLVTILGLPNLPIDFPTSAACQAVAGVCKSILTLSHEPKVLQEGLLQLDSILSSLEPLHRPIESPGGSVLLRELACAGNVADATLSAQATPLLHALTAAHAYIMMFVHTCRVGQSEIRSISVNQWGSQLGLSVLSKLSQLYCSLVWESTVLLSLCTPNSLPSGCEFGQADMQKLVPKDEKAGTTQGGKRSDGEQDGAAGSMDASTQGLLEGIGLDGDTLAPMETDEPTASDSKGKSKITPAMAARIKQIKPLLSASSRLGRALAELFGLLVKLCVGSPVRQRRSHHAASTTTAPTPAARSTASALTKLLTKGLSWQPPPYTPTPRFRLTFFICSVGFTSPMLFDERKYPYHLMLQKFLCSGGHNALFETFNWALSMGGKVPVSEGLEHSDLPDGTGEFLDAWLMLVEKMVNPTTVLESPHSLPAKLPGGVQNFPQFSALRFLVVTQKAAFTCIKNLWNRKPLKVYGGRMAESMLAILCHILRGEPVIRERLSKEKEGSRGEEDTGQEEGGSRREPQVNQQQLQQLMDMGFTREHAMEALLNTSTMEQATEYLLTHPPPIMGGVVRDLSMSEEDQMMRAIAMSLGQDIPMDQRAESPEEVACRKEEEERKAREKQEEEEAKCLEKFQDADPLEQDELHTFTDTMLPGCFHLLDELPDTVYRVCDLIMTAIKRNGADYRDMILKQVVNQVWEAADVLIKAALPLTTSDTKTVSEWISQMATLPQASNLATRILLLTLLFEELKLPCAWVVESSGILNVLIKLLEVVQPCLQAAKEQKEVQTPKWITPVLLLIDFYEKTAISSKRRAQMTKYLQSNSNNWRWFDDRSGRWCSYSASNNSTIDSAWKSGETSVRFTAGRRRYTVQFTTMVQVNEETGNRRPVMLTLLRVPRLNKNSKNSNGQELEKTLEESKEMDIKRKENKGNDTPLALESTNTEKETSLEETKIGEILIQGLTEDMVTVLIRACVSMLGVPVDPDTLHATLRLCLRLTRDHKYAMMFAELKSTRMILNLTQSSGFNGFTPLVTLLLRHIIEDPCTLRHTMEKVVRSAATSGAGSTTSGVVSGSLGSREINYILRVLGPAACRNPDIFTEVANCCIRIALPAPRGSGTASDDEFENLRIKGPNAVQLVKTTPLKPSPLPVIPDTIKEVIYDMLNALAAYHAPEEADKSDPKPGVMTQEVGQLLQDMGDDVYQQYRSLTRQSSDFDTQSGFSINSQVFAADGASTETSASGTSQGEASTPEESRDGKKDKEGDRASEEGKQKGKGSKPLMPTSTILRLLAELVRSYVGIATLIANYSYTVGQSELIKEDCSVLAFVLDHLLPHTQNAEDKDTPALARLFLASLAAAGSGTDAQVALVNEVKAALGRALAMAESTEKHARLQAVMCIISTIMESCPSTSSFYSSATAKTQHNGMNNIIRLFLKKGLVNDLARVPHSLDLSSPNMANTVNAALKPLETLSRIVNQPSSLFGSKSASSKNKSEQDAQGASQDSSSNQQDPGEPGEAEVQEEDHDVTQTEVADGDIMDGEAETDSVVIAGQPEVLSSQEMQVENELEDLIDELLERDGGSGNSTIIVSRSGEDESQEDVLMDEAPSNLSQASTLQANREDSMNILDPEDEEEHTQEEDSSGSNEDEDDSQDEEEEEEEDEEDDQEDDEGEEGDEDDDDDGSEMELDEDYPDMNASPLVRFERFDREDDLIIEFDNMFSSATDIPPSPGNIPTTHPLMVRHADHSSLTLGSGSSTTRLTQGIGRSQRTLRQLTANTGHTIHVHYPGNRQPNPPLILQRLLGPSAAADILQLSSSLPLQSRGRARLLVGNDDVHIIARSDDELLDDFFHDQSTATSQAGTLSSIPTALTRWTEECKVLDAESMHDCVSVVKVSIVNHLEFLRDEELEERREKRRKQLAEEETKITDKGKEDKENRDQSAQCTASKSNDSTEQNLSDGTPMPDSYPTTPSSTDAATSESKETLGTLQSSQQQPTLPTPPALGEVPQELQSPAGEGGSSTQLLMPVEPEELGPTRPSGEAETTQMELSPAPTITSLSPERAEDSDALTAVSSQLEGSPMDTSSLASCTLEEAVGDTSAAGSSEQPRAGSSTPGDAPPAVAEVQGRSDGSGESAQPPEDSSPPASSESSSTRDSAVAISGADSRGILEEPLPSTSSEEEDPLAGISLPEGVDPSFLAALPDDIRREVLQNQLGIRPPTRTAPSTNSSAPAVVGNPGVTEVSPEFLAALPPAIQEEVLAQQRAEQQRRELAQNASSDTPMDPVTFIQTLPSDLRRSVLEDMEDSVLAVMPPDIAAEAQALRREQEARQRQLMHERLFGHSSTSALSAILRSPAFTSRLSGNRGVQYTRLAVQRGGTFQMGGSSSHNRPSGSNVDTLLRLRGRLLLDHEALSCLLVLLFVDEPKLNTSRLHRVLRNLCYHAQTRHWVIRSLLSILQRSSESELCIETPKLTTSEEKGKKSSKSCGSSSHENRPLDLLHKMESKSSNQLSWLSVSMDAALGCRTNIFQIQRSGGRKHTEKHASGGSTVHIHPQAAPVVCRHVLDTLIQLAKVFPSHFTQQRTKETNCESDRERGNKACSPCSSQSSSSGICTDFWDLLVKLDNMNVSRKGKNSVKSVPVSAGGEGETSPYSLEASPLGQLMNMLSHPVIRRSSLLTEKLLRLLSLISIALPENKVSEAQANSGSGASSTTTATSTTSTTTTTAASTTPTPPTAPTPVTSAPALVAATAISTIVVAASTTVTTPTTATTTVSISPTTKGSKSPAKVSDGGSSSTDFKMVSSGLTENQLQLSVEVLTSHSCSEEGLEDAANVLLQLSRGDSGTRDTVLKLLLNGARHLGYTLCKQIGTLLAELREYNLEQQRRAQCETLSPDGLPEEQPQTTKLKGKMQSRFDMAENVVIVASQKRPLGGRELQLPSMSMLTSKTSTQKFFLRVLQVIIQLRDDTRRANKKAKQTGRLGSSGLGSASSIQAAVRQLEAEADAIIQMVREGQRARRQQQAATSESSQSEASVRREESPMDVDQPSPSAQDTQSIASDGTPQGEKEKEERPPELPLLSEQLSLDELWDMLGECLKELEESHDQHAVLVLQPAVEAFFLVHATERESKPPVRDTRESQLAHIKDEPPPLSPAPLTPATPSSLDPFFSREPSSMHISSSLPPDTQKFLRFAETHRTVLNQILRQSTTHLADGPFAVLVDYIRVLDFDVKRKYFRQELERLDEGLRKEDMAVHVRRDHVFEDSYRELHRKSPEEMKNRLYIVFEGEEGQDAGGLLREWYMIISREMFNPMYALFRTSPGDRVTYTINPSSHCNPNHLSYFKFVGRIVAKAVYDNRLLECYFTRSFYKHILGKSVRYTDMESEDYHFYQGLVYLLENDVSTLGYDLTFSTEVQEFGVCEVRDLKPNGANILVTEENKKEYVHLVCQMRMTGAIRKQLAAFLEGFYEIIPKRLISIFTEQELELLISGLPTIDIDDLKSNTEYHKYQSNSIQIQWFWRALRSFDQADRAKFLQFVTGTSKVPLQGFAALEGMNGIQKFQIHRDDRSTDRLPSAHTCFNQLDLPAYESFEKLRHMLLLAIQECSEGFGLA
# RBM25, P49756, UniProt P49756, whole entry: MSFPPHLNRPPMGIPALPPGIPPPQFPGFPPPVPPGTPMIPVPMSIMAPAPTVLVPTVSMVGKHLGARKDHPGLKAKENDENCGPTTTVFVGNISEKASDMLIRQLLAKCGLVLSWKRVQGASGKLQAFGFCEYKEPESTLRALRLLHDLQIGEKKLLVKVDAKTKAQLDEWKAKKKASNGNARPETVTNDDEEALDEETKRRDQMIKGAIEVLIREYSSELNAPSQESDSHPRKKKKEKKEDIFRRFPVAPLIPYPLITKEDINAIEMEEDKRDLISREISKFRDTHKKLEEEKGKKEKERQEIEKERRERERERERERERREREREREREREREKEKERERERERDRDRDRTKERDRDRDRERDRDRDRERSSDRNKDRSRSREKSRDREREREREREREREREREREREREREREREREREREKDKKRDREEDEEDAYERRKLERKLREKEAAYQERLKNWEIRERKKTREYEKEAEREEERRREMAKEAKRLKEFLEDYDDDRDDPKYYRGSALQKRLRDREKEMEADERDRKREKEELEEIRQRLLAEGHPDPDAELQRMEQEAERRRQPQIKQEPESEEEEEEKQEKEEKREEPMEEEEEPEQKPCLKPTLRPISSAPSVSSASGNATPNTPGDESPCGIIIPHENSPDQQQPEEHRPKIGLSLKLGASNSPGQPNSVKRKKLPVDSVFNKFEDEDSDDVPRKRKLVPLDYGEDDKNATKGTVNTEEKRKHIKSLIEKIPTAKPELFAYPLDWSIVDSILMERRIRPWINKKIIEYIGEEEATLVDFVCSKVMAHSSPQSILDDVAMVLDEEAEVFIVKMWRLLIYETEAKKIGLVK
# Some of the results follow. Only hits are listed; about a third recur on repeated control peptides.
# B1: NAV2-AS2_2 (peptide)
# chain: TCECFSASVCGQRLS
# B2: RP1-206D15.6 (peptide)
# chain: SFLFTVSGMSIQFPL
# B3: TUG1 (peptide)
# chain: QLLRPAPGEAAAAAA
# How the values were obtained:
# Assay in all cases: PRISMA enrichment of interactor (LFQ) in peptide spot vs all other peptide spots (log2 fold change); higher = stronger / more specific binding of the interactor to the peptide
# [1] = molecular target: AEBP2, Q6ZN18
# Experimental: (§1)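 PRISMA: 15-aa overlapping tiles (offset 8 aa) of 60 microproteins, plus SOS1/GLUT1 control peptides, were spot-synthesized on cellulose membranes in triplicate. Membranes were incubated with benzonase-treated HEK293T lysate, and bound proteins were identified by LC-MS/MS with LFQ. Enrichment is the log2 fold change of each protein in one spot versus all other spots. Only interactors passing the significance cutoff are listed.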
# [2] = molecular target: ATP2A2, P16615
# Experimental: as §1
# [3] = molecular target: BTF3L4, Q96K17
# Experimental: as §1
# [4] = molecular target: CGGBP1, Q9UFW8
# Experimental: as §1
# [5] = molecular target: CHMP1A, Q9HD42
# Experimental: as §1
# [6] = molecular target: COPA, P53621
# Experimental: as §1
# [7] = molecular target: CTNND1, O60716
# Experimental: as §1
# [8] = molecular target: EIF3H, O15372
# Experimental: as §1
# [9] = molecular target: HLA-B
# Experimental: as §1
# [10] = molecular target: HTATSF1, O43719
# Experimental: as §1
# [11] = molecular target: MAP7D3, Q8IWC1
# Experimental: as §1
# [12] = substrate: PC, P11498
# Experimental: as §1
# [13] = molecular target: RER1, O15258
# Experimental: as §1
# [14] = molecular target: UQCRB, P14927
# Experimental: as §1
# [15] = molecular target: ADNP, Q9H2P0
# Experimental: as §1
# [16] = molecular target: CDC20, Q12834
# Experimental: as §1
# [17] = molecular target: CDCA5, Q96FF9
# Experimental: as §1
# [18] = molecular target: CDKN2AIPNL, Q96HQ2
# Experimental: as §1
# [19] = molecular target: CNN3, Q15417
# Experimental: as §1
# [20] = molecular target: EI24, O14681
# Experimental: as §1
# [21] = molecular target: FAM168A, Q92567
# Experimental: as §1
# [22] = molecular target: NUP37, Q8NFH4
# Experimental: as §1
# [23] = molecular target: OGT, O15294
# Experimental: as §1
# [24] = molecular target: PCBP2, Q15366
# Experimental: as §1
# [25] = molecular target: PDIA4, P13667
# Experimental: as §1
# [26] = molecular target: PFAS, O15067
# Experimental: as §1
# [27] = molecular target: PSMD6, Q15008
# Experimental: as §1
# [28] = molecular target: TOMM6, Q96B49
# Experimental: as §1
# [29] = molecular target: TSPYL2, Q9H2G4
# Experimental: as §1
# [30] = molecular target: TUBB6, Q9BUF5
# Experimental: as §1
# [31] = molecular target: ZBTB10, Q96DT7
# Experimental: as §1
# [32] = molecular target: AFDN, P55196
# Experimental: as §1
# [33] = molecular target: CCDC137, Q6PK04
# Experimental: as §1
# [34] = molecular target: CISD1, Q9NZ45
# Experimental: as §1
# [35] = molecular target: CLNS1A, P54105
# Experimental: as §1
# [36] = molecular target: COPS4, Q9BT78
# Experimental: as §1
# [37] = molecular target: DHX40, Q8IX18
# Experimental: as §1
# [38] = molecular target: DRG1, Q9Y295
# Experimental: as §1
# [39] = molecular target: EBNA1BP2, Q99848
# Experimental: as §1
# [40] = molecular target: EIF2S1, P05198
# Experimental: as §1
# [41] = molecular target: EIF5B, O60841
# Experimental: as §1
# [42] = molecular target: FGA, P02671
# Experimental: as §1
# [43] = molecular target: GNL1, P36915
# Experimental: as §1
# [44] = molecular target: HUWE1, Q7Z6Z7
# Experimental: as §1
# [45] = molecular target: LRRC40, Q9H9A6
# Experimental: as §1
# [46] = molecular target: LSM14B, Q9BX40
# Experimental: as §1
# [47] = molecular target: MAGT1, Q9H0U3
# Experimental: as §1
# [48] = molecular target: MAP4, P27816
# Experimental: as §1
# [49] = molecular target: MAP7D1, Q3KQU3
# Experimental: as §1
# [50] = molecular target: MRTO4, Q9UKD2
# Experimental: as §1
# [51] = molecular target: NAMPT, P43490
# Experimental: as §1
# [52] = molecular target: NKRF, O15226
# Experimental: as §1
# [53] = molecular target: NOL6, Q9H6R4
# Experimental: as §1
# [54] = molecular target: NUMA1, Q14980
# Experimental: as §1
# [55] = molecular target: PCM1, Q15154
# Experimental: as §1
# [56] = molecular target: PDCD10, Q9BUL8
# Experimental: as §1
# [57] = molecular target: POLR2G, P62487
# Experimental: as §1
# [58] = molecular target: PSIP1, O75475
# Experimental: as §1
# [59] = molecular target: RBM25, P49756
# Experimental: as §1
# [60] = molecular target: SF3A3, Q12874
# Experimental: as §1
# [61] = molecular target: SH3GLB1, Q9Y371
# Experimental: as §1
# [62] = molecular target: SPTY2D1, Q68D10
# Experimental: as §1
# [63] = molecular target: TCAF1, Q9Y4C2
# Experimental: as §1
# [64] = molecular target: VPS25, Q9BRG1
# Experimental: as §1
binder,measurement,setting,value
B1,PRISMA enrichment of interactor (log2),[1],3.63
same,PRISMA enrichment of interactor (log2),[2],4.34
same,PRISMA enrichment of interactor (log2),[3],4.31
same,PRISMA enrichment of interactor (log2),[4],4.87
same,PRISMA enrichment of interactor (log2),[5],4.37
same,PRISMA enrichment of interactor (log2),[6],6.17
same,PRISMA enrichment of interactor (log2),[7],4.71
same,PRISMA enrichment of interactor (log2),[8],4.14
same,PRISMA enrichment of interactor (log2),[9],4.17
same,PRISMA enrichment of interactor (log2),[10],6.98
same,PRISMA enrichment of interactor (log2),[11],4.28
same,PRISMA enrichment of interactor (log2),[12],6.83
same,PRISMA enrichment of interactor (log2),[13],4.88
same,PRISMA enrichment of interactor (log2),[14],4.5
B2,PRISMA enrichment of interactor (log2),[15],5.83
same,PRISMA enrichment of interactor (log2),[16],8.18
same,PRISMA enrichment of interactor (log2),[17],4.5
same,PRISMA enrichment of interactor (log2),[18],4.36
same,PRISMA enrichment of interactor (log2),[19],5.81
same,PRISMA enrichment of interactor (log2),[20],6.91
same,PRISMA enrichment of interactor (log2),[21],4.56
same,PRISMA enrichment of interactor (log2),[22],6.21
same,PRISMA enrichment of interactor (log2),[23],4.63
same,PRISMA enrichment of interactor (log2),[24],3.99
same,PRISMA enrichment of interactor (log2),[25],4.75
same,PRISMA enrichment of interactor (log2),[26],3.79
same,PRISMA enrichment of interactor (log2),[27],6.01
same,PRISMA enrichment of interactor (log2),[28],4.5
same,PRISMA enrichment of interactor (log2),[29],5.07
same,PRISMA enrichment of interactor (log2),[30],5.1
same,PRISMA enrichment of interactor (log2),[31],5.07
B3,PRISMA enrichment of interactor (log2),[32],4.09
same,PRISMA enrichment of interactor (log2),[33],7.71
same,PRISMA enrichment of interactor (log2),[34],3.6
same,PRISMA enrichment of interactor (log2),[35],4.52
same,PRISMA enrichment of interactor (log2),[36],9.7
same,PRISMA enrichment of interactor (log2),[37],4.83
same,PRISMA enrichment of interactor (log2),[38],5.99
same,PRISMA enrichment of interactor (log2),[39],4.9
same,PRISMA enrichment of interactor (log2),[40],4.99
same,PRISMA enrichment of interactor (log2),[41],4.29
same,PRISMA enrichment of interactor (log2),[42],4.17
same,PRISMA enrichment of interactor (log2),[43],6.35
same,PRISMA enrichment of interactor (log2),[44],4.84
same,PRISMA enrichment of interactor (log2),[45],4.75
same,PRISMA enrichment of interactor (log2),[46],4.53
same,PRISMA enrichment of interactor (log2),[47],8.41
same,PRISMA enrichment of interactor (log2),[48],6.12
same,PRISMA enrichment of interactor (log2),[49],7.11
same,PRISMA enrichment of interactor (log2),[50],5.16
same,PRISMA enrichment of interactor (log2),[51],5.06
same,PRISMA enrichment of interactor (log2),[52],5.37
same,PRISMA enrichment of interactor (log2),[53],4.54
same,PRISMA enrichment of interactor (log2),[54],5.08
same,PRISMA enrichment of interactor (log2),[55],5.98
same,PRISMA enrichment of interactor (log2),[56],4.63
same,PRISMA enrichment of interactor (log2),[57],4.92
same,PRISMA enrichment of interactor (log2),[58],5.67
same,PRISMA enrichment of interactor (log2),[59],7.17
same,PRISMA enrichment of interactor (log2),[60],4.53
same,PRISMA enrichment of interactor (log2),[61],3.88
same,PRISMA enrichment of interactor (log2),[62],7.37
same,PRISMA enrichment of interactor (log2),[63],4.17
same,PRISMA enrichment of interactor (log2),[64],4.49

# Reformatted bar-delimited: part of the list above
binder | measurement | setting | value
B2 | PRISMA enrichment of interactor (log2) | [22] | 6.21
same | PRISMA enrichment of interactor (log2) | [23] | 4.63
same | PRISMA enrichment of interactor (log2) | [24] | 3.99
